Test [1] addresses JAK1 (UniProt P23458). Kind of test: co-immunoprecipitation: JAK1 pull-down from A375 cell lysates, immunoblot for APLNR; IgG pull-down as negative control. A general note: A western blot detects proteins with antibodies after separation by electrophoresis.
In test [2] the target is JAK1 (UniProt P23458). Kind of test: co-immunoprecipitation: JAK1 pull-down from A375 cell lysates, immunoblot for APLNR.

Amino acid sequences for entries named in this document (tags omitted).
UniProt P23458: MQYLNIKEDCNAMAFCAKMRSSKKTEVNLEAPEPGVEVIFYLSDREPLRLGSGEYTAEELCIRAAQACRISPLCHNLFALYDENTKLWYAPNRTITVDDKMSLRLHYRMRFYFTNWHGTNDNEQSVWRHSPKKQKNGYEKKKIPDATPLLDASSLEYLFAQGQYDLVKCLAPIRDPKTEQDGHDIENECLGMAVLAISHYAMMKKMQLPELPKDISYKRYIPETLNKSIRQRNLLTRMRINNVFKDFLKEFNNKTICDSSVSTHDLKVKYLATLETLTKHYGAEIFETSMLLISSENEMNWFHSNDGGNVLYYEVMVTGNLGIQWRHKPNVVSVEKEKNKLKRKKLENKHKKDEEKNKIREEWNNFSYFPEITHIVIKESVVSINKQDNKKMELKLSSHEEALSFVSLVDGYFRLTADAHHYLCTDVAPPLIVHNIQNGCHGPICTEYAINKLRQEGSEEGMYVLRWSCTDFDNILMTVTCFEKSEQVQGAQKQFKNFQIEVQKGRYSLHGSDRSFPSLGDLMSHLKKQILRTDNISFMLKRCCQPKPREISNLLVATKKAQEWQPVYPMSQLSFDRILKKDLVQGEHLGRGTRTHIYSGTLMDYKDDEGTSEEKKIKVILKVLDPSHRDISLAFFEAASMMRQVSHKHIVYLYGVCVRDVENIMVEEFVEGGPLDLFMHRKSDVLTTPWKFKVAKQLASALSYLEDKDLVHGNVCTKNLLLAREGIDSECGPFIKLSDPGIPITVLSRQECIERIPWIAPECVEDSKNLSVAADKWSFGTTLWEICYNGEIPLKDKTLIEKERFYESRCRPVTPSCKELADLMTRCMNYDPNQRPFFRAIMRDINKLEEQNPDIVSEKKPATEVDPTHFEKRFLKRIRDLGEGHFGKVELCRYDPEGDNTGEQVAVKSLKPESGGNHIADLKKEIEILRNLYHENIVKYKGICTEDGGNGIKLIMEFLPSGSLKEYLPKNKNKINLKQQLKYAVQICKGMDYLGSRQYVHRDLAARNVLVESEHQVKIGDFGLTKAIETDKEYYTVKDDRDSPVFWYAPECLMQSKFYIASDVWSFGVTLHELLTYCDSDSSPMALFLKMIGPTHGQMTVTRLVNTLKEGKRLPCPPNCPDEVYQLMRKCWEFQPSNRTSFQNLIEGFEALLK
UniProt P35414: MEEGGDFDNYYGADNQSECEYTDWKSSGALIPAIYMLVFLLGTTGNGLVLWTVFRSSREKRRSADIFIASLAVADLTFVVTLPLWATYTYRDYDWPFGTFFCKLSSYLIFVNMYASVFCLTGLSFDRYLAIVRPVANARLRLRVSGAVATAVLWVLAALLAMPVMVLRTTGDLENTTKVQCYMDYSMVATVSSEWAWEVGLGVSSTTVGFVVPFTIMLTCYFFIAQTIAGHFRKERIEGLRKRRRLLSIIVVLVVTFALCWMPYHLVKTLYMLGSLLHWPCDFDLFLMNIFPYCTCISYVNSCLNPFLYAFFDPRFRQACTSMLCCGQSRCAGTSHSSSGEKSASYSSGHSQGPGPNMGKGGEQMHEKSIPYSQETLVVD

These results are taken from patent US20190316206A1.

Results are given in words; binding and its absence hold for the method and conditions named. In cells and extracts the contact can be indirect. Some entries that bind do so weakly or less than the wild type.

In the case of “Apelin Receptor (APLNR) (from UniProt P35414 1-380)”, the binding entry with JAK1 [1] and in the test with JAK1 [2] was “binds” each time.
